# Test results published in patent US20190389841A1, “COMPOUNDS FOR TREATMENT OF TRIPLE NEGATIVE BREAST CANCER AND OVARIAN CANCER” (UNIVERSITY OF TENNESSEE RESEARCH FOUNDATION, priority 2018, published 2019).
# Some results were stated once for a whole list of compounds, not compound by compound.
# System: caspase 3/7 activity in MDA-MB-231 and MDA-MB-468 cells
# Assay: Caspase Glo 3/7 activity assay
# Format: cell-based, human
smiles,measurement,value
CC(=O)O[C@H]1C(=O)[C@@]2(C)[C@H]([C@H](OC(=O)c3ccccc3)[C@]3(O)C[C@H](OC(=O)[C@H](O)[C@@H](NC(=O)c4ccccc4)c4ccccc4)C(C)=C1C3(C)C)[C@]1(OC(C)=O)CO[C@@H]1C[C@@H]2O [paclitaxel],caspase 3/7 activity versus control group,up to 4 fold
